By UniProt entry, the sequences of proteins in these tests, tags left out.
UniProt P43694: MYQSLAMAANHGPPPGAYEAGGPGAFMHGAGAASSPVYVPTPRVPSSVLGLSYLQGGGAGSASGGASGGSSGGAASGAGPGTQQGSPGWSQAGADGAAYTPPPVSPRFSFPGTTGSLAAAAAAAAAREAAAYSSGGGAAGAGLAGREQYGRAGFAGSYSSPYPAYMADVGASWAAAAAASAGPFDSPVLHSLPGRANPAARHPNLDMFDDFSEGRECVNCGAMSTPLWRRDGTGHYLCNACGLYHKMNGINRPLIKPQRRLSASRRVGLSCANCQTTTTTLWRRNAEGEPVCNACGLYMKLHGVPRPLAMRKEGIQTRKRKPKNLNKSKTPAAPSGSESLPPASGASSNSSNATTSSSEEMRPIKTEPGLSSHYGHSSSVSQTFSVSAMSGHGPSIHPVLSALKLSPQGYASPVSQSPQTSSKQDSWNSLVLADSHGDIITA
UniProt Q92922: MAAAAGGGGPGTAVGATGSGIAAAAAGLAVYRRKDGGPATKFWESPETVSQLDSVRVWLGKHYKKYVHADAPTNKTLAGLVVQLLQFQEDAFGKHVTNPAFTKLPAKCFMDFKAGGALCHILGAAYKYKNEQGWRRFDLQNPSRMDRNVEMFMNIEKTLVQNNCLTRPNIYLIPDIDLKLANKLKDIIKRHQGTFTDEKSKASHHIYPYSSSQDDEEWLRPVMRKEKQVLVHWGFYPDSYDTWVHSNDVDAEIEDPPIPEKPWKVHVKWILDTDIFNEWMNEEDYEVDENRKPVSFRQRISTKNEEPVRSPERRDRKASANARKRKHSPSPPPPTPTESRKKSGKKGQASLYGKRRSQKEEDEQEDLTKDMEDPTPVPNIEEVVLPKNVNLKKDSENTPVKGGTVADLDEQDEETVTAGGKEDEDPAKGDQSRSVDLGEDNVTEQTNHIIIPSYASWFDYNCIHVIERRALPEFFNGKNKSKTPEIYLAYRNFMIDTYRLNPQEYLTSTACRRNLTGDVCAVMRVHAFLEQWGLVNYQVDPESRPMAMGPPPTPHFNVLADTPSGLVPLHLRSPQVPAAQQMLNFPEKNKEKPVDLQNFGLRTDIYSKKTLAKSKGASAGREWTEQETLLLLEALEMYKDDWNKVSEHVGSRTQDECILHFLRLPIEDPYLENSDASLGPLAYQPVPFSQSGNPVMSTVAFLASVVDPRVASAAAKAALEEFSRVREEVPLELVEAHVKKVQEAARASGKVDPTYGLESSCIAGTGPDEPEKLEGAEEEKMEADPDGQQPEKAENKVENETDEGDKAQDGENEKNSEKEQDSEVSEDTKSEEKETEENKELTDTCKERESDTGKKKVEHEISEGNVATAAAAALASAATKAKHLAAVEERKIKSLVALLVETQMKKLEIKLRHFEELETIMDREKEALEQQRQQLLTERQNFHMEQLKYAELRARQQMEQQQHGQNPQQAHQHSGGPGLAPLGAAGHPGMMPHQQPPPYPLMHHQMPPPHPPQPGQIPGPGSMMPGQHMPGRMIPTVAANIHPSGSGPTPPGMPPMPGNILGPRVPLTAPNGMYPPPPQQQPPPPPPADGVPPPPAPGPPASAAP

In publication doi:10.1101/2021.01.05.423837:

Target: GATA4 (endogenous, human iPSC-derived cardiac progenitors) (human (endogenous in hiPSC-derived cardiac progenitors)) (UniProt P43694)
Assay: affinity purification with mass spectrometry

| Molecule | binding |
| --- | --- |
| SMARCC1 (endogenous, human iPSC-derived cardiac progenitors) (from UniProt Q92922 1-1105) | binds |
| GLYR1 (endogenous, human iPSC-derived cardiac progenitors) (protein, UniProt Q49A26 1-553) MAAVSLRLGDLVWGKLGRYPPWPGKIVNPPKDLKKPRGKKCFFVKFFGTEDHAWIKVEQLKPYHAHKEEMIKINKGKRFQQAVDAVEEFLRRAKGKDQTSSHNSSDDKNRRNSSEERSRPNSGDEKRKLSLSEGKVKKNMGEGKKRVSSGSSERGSKSPLKRAQEQSPRKRGRPPKDEKDLTIPESSTVKGMMAGPMAAFKWQPTASEPVKDADPHFHHFLLSQTEKPAVCYQAITKKLKICEEETGSTSIQAADSTAVNGSITPTDKKIGFLGLGLMGSGIVSNLLKMGHTVTVWNRTAEKCDLFIQEGARLGRTPAEVVSTCDITFACVSDPKAAKDLVLGPSGVLQGIRPGKCYVDMSTVDADTVTELAQVIVSRGGRFLEAPVSGNQQLSNDGMLVILAAGDRGLYEDCSSCFQAMGKTSFFLGEVGNAAKMMLIVNMVQGSFMATIAEGLTLAQVTGQSQQTLLDILNQGQLASIFLDQKCQNILQGNFKPDFYLKYIQKDLRLAIALGDAVNHPTPMAAAANEVYKRAKALDQSDNDMSAVYRAYIH | binds |

No constants are given. Whether binding was seen depends on the method and setting. In cells and extracts the contact can be indirect. Here binding means that the protein was enriched with, or labelled near, the bait; the list need not be complete.
